PubChem BioAssay AID1259260, Sanger Institute | 2017
The deposit covers 794 reagents; this is a part drawn at random. Of all reagents, 13 (1.6%) got an active call. 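Calls reflect only knock-down without drug; synergy above 0.15 was grouped apart and does not change the call.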 Unmarked entries are inactive. No viability above 1 is reported: the scale is capped. Not stated in the record: the amount of reagent, the time to read-out.

- Screen: 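Essential and drug-synergistic kinases in a colorectal cancer cell line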 (primary screen)
- Cell system: human NCI-H716 colorectal cancer cells
- Knock-down reagent: siRNA pool against human genes
- Challenge: anchor drugs BYL719 (alpelisib) 1 µM, cetuximab 5 µg/ml or trametinib 10 nM, each at a dose chosen to harm viability only mildly; DMSO vehicle for the knock-down-alone arm
- Read-out: 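Mean viability over replicates against non-targeting siRNA, robust z-score without drug, and per-drug synergy comparing combined with single treatments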
- Reading the numbers: viability robust z-score, siRNA alone: higher = more surviving cells; below -3 called essential; viability vs control, no drug: higher = more surviving cells; synergy score with BYL719 and synergy score with cetuximab and synergy score with trametinib: higher = stronger synergy (synthetic lethality) with drug
- Active means: 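a knock-down counts as essential if its no-drug robust z-score is lower than -3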
- Meaning of the calls: active = essential (knock-down alone lowers viability); inactive = no essential effect

target gene,"viability robust z-score, siRNA alone","viability vs control, no drug (fraction of control)",synergy score with BYL719,synergy score with cetuximab,synergy score with trametinib
SPEG,0.602,1,-0.185,-0.1,0.119
VRK1,0.602,1,-0.0726,-0.1,0.112
CAMK1G,0.602,1,-0.167,-0.1,-0.114
BUB1B,-2.58,0.669,-0.268,-0.223,0.00362
ATR,0.602,1,0.0674,-0.1,0.289
UCKL1,0.602,1,-0.247,-0.1,-0.136
TEX14,-0.0244,0.935,-0.0918,-0.0245,0.0222
MINK1,0.602,1,-0.161,-0.1,0.264
DCLK2,-1.57,0.774,-0.202,-0.103,-0.0268
PIM2,0.602,1,-0.0105,-0.1,0.0931
RIPK2,-2.91,0.635,-0.154,-0.186,0.103
TNNI3K,0.602,1,-0.228,-0.1,-0.0618
EPHA5,0.602,1,-0.186,-0.0229,-0.107
NEK10,0.602,1,-0.252,-0.1,0.149
PANK4,-0.453,0.89,-0.0408,-0.13,0.0798
KDR,0.602,1,-0.0511,-0.1,0.0345
ALPK3,0.602,1,-0.177,-0.1,0.0343
NEK2,0.602,1,-0.2,-0.1,-0.243
PAK3,0.602,1,0.0201,-0.1,0.155
DGKQ,0.602,1,-0.0912,-0.0807,-0.0444
BRDT,0.602,1,-0.229,-0.0282,-0.0219
AXIN2,0.602,1,-0.173,-0.1,0.00409
ACO1,-1.34,0.798,-0.0127,-0.0505,-0.001
PDK1,0.602,1,-0.262,-0.1,0.0129
ATP23,0.602,1,-0.142,-0.1,0.00608
PIK3C2B,0.168,0.955,-0.268,-0.141,0.14
DLG1,-1.2,0.812,-0.063,0.12,0.0886
EIF2AK1,0.602,1,-0.283,-0.1,-0.149
PIK3C2G,0.602,1,-0.00194,-0.1,0.402
CSNK2A2,0.602,1,-0.159,-0.1,0.0647
AXL,0.602,1,-0.116,-0.1,0.0534
VRK2,0.602,1,0.0914,-0.1,-0.0298
MAP4K4,0.602,1,-0.213,-0.1,-0.11
PRKCQ,0.602,1,-0.233,-0.1,-0.228
TESK2,0.602,1,-0.174,-0.1,-0.113
DYRK2,0.602,1,-0.189,-0.1,0.113
BCKDK,0.602,1,-0.283,-0.1,-0.163
GUCY2C,0.602,1,-0.283,-0.1,-0.191
ITPKA,0.381,0.977,-0.0451,-0.0181,0.192
PTK6,0.602,1,-0.15,-0.1,0.0597
MAP2K5,0.147,0.953,-0.156,-0.143,-0.104
CDK18,-2.02,0.727,-0.23,-0.188,-0.107
MYO3A,-2.64,0.663,-0.102,-0.0959,-0.0946
MKNK2,0.602,1,-0.0496,0.0901,0.0966
ROR2,0.602,1,-0.0539,-0.0764,0.109
PKN2,-2.11,0.718,-0.059,0.0131,0.203
AMHR2,-3.24 (active),0.601,-0.212,-0.319,-0.0906
PEAK1,-1.54,0.777,-0.0692,-0.0393,0.119
CHUK,0.602,1,-0.192,-0.1,-0.169
CALM3,0.556,0.995,-0.102,-0.0467,-0.0132

Ordered by “synergy score with trametinib” (lowest first): some entries from above.
target gene,"viability robust z-score, siRNA alone","viability vs control, no drug (fraction of control)",synergy score with BYL719,synergy score with cetuximab,synergy score with trametinib
EIF2AK1,0.602,1,-0.283,-0.1,-0.149
DLG1,-1.2,0.812,-0.063,0.12,0.0886
PIK3C2B,0.168,0.955,-0.268,-0.141,0.14
